This is one part of the list.
tested on: T1, CTL2-GFP (C. trachomatis L2/434/Bu, GFP-expressing); design: species or system HeLa; Intracellular C. trachomatis growth in HeLa cells, bulk GFP fluorescence relative to DMSO; conditions: bulk GFP, single well; 28.5 h, 10 µM; inhibitor
T1 construct: L2/434/Bu, GFP-expressing

| SMILES | % of control remaining [%] |
| --- | --- |
| CN1CCc2c(sc3nc(SCc4cccc5ccccc45)n(-c4ccccc4)c(=O)c23)C1 [CBK264556] | 82.0182 |
| COc1ccc(OC)c(C2C(C(=O)c3ccc(C)cc3)=C(O)C(=O)N2Cc2cccnc2)c1 (stereo not drawn) [CBK264492] | 94.1954 |
| Cc1cc(NC(=O)c2cc3ccccc3oc2=O)nc2c1c(=O)oc1ccccc12 [CBK287445] | 121.453 |
| Nc1ncnc2c1ncn2[C@@H]1O[C@H](CCl)[C@H](O)C1O (stereo partly drawn) [CBK201252] | 96.9324 |
| Cc1ccc(S(=O)(=O)Nc2ccc(C3(c4ccc(NS(=O)(=O)c5ccc(C)cc5)cc4)c4ccccc4-c4ccccc43)cc2)cc1 [CBK261154] | 97.5088 |
| O=C(/C=C/c1ccco1)Nc1cccc2c(NC(=O)/C=C/c3ccco3)cccc12 [CBK264974] | 110.362 |
| Cc1nn(CC(=O)NC(C)(C)C)c(=O)c2cc3sccc3n12 [CBK284021] | 132.373 |
| Cc1cc(C2CCCCCN2S(=O)(=O)c2ccc3[nH]c(=O)[nH]c(=O)c3c2)no1 (stereo not drawn) [CBK286404] | 122.808 |
| CCN(CC)C(=O)Cn1ncc2c3sc(C)cc3n(CC)c2c1=O [CBK284167] | 99.1383 |
| COCc1cn([C@H]2CO[C@H]3[C@@H]2OC[C@H]3OC(=O)Nc2ccc(C)cc2)nn1 [CBK289489] | 99.4794 |
| CC(=O)Nc1ccccc1NC(=O)COc1ccc(Br)cc1C [CBK265072] | 129.632 |
| CN(C)c1cc(CNC(=O)c2cc3ccccc3oc2=O)ccn1 [CBK297917] | 125.775 |
| CC(C)(CN1C(=O)c2ccccc2C1=O)C(O)C(=O)O (stereo not drawn) [CBK286582] | 145.241 |
| O=C(Nc1ccc(-c2nc3ccccc3s2)c(O)c1)c1ccc(-c2ccccc2)cc1 [CBK263979] | 100 |
| O=C(O)CCNS(=O)(=O)c1cccc(Cl)c1 [CBK267328] | 136.055 |
| CC(=O)N[C@H](C(=O)N1CC[C@H]2NC(=O)[C@@H](Cc3ccccc3)NC(=O)C3(C/C=C/C[C@H]2C1)CCOCC3)[C@@H](C)OC(C)(C)C [CBK292203] | 119.532 |
| c1cnc(N2CCNCC2)c(OC2CCCCC2)n1 [CBK001837C] | 124.459 |
| O=[N+]([O-])c1nn(-c2ccccc2)[n+]([O-])c1Nc1ccc(Br)cc1 [CBK268504] | 87.7066 |
| COC(=O)c1c(NC(=O)c2cnccn2)sc2c1CCC(C)C2 (stereo not drawn) [CBK262654] | 100 |
| O=C(O)CCCC(=O)Nc1cccc([N+](=O)[O-])c1 [CBK261530] | 109.805 |
| CC(=O)NC(c1nccs1)C1CCCN(CC2CCCCC2)C1 (stereo not drawn) [CBK285152] | 138.27 |
| Cc1noc(C)c1S(=O)(=O)NCCc1c[nH]c2ccccc12 [CBK067311] | 112.056 |
| Cc1ccc2ncc(C(=O)Nc3ccc(F)cc3F)c(=O)n2c1 [CBK287286] | 101.471 |
| COc1ccc([C@@]23CC[C@@H](NC(=O)c4ccc(Br)c(C)c4)C[C@@H]2N(C)CC3)cc1OC [CBK076656T] | 117.896 |
| Cc1nc(C)c(C(=O)NCCN2CC(C)CC(C)C2)s1 (stereo not drawn) [CBK283071] | 134.644 |
| O=C(CC1CC2CCC1C2)N1CCC(O)(c2ccccn2)CC1 (stereo not drawn) [CBK283833] | 109.451 |

| SMILES | % of control remaining [%] |
| --- | --- |
| OCCNc1ncnc2c1cnn2-c1ccccc1 [CBK077741C] | 77.5059 |
| Cc1ccn(CCC(=O)N2CCC[C@@H]3NC(=O)c4ccccc4OCC/C=C/C[C@@H]32)n1 [CBK292082] | 130.168 |
| N#Cc1cccc(Nc2cncc(-c3cccc(C(=O)NCCO)c3)n2)c1 [CBK037810] | 164.385 |
| O=C(CCS(=O)(=O)c1ccccc1)Nc1ccccc1N1CCNCC1 [CBK028285T] | 98.8874 |
| CC1(C)CCCC1NC(=O)NCc1cccc(-c2nnc[nH]2)c1 (stereo not drawn) [CBK305236] | 118.374 |
| Cc1cc(OCC2CCN(C(=O)OC(C)(C)C)CC2)ccc1Br [CBK175091] | 110.981 |
| CN(C)C1Cc2cccc3nc(S(C)(=O)=O)n(c23)C1 (stereo not drawn) [CBK007942] | 111.668 |
| Cc1cc(Br)ccc1C(=O)N1CC(C(N)=O)CCC1C (stereo not drawn) [CBK305954] | 84.6191 |
| Cc1nn(C)cc1CN1CCCC1c1nc(N(C)C)ncc1-c1cccc(Cl)c1 (stereo not drawn) [CBK286501] | 128.856 |
| COc1cccc(N2CCC(=O)N2)c1 [CBK087441] | 112.184 |
| O=C(Nc1ccc(NC(=O)c2cc3ccccc3o2)cc1)c1ccc(-c2cccc([N+](=O)[O-])c2)o1 [CBK268579] | 150.687 |
| Cc1cc(C)n(CC(=O)N2CCOC(c3ccccc3Cl)C2)n1 (stereo not drawn) [CBK304927] | 116.625 |
| Cc1nn(C)cc1-c1cncn1CCCN1CCCCC1 [CBK281493] | 108.581 |
| Oc1cccc(Sc2cc(N3CCCC3)ncn2)c1 [CBK093749] | 127.835 |
| Cc1cc2ccccc2n2c(SCC(=O)NCCc3ccccc3)nnc12 [CBK265682] | 87.9315 |
| Cc1ccc2c(c1)c(NS(C)(=O)=O)nn2Cc1ccc(C#N)cc1 [CBK048643] | 120.263 |
| CCCn1c(SCc2csc(CC(=O)Nc3ccccc3C)n2)n[nH]c1=O [CBK296969] | 121.329 |
| O=C(CSc1nc(O)cc(O)n1)Nc1ccc(I)cc1 [CBK269467] | 117.635 |
| CN(Cc1ccc(-c2ccc(S(C)(=O)=O)cc2)nc1)C1CCNCC1 [CBK163942] | 102.624 |
| CCOC(=O)c1nc(N)oc1C [CBK056636] | 83.9515 |
| Cc1cc(/C=N/NC(=O)c2ccc(CN3CCOCC3)cc2)c(C)n1-c1ccccc1 [CBK263329] | 115.674 |
| CN(CCC#N)S(=O)(=O)c1ccc(OC(F)(F)F)cc1 [CBK044415] | 124.232 |
| CCN(CC(=O)NCc1ccc(F)cc1)C(=O)c1ccc(C#N)cc1 [CBK305841] | 124.141 |
| Cc1ccccc1COc1cccn2c(N(C)CC3CCCO3)c(C)nc12 (stereo not drawn) [CBK147231] | 119.87 |
| COc1ccc(C)cc1S(=O)(=O)Nc1cc(N2CCN(CC3CC3)CC2)c2occc2c1 [CBK073624C] | 114.587 |
| COc1cccc(CN2CCC(Cc3ccccc3)CC2)c1 [CBK126436] | 123.505 |

| SMILES | % of control remaining [%] |
| --- | --- |
| CCOC(=O)c1sc2nc(C(C)N(C)Cc3ccco3)[nH]c(=O)c2c1C (stereo not drawn) [CBK306148] | 94.7575 |
| CC(C)OC(=O)c1cc2n(n1)C(C(F)(F)F)CC(c1cccs1)N2 (stereo not drawn) [CBK307176] | 103.443 |
| CC[C@@H](Cn1nc2c(cc1=O)CCCCC2)NC(=O)c1ccco1 [CBK284553] | 152.065 |
| O=C(Cc1ccccc1)N1CCc2c([nH]c3ccccc23)C12CCNC2 (stereo not drawn) [CBK059461] | 117.471 |
| COc1ccc(-n2nnc(C(=O)N3CCCCC3C(N)=O)c2C)cc1 (stereo not drawn) [CBK305551] | 92.6113 |
| Cc1ccc(C(=O)NNC(=O)c2cccnc2)cc1 [CBK261045] | 100 |
| COc1ccccc1-c1cc2nc(C)cc(NCC3CCCO3)n2n1 (stereo not drawn) [CBK304277] | 131.67 |
| COC(=O)c1ccc(N2CCN(Cc3nc(C4CC4)no3)C(C)C2)cc1 (stereo not drawn) [CBK305744] | 115.885 |
| OCCN1CC2(CCN(CC3CCCO3)CC2)c2ccccc21 (stereo not drawn) [CBK143959] | 128.764 |
| O=C(NCCCN1CCOCC1)NC(=O)c1ccc(Cl)cc1 [CBK269531] | 152.21 |
| O=C(CSc1nnc(-c2ccccc2)c(-c2ccccc2)n1)Nc1ccc(N2CCOCC2)cc1 [CBK269684] | 124.45 |
| O=C(Cn1c(NCCO)nc2ccccc21)c1ccc([N+](=O)[O-])cc1 [CBK262139B] | 85.3283 |
| O=C(NC[C@H]1O[C@@H](CC(=O)N2CCN(c3ccccc3)CC2)[C@H](O)[C@@H]1O)c1ccco1 [CBK288919] | 105.396 |
| COc1cccc(CNC2CC2)c1OCc1ccccc1 [CBK270009C] | 137.67 |
| COc1cc(C(N)C(=O)O)ccc1OCc1ccccc1 (stereo not drawn) [CBK286909] | 145.436 |
| O=c1c(N2CCNCC2)nccn1CC1COc2ccccc2O1 (stereo not drawn) [CBK024845T] | 100.534 |
| CC1(C)C/C(=N/O)c2cc3c(nc2C1)CC(C)(C)C/C3=N\O [CBK261629] | 108.732 |
| COC(=O)c1c(NC(=S)NNC(=O)c2nn(C)cc2I)sc2c1CCC2 [CBK267074] | 148.021 |
| Cc1cc(-c2cc(=O)n(Cc3ccccc3C)nc2-c2ccco2)on1 [CBK282878] | 98.3213 |
| COc1cccc(OCC(=O)NCC(c2cccs2)N2CCOCC2)c1 (stereo not drawn) [CBK304664] | 118.725 |
| CC(C)(CNC(=O)c1ccc(=O)n(CC(=O)N2CCc3ccccc32)c1)c1ccccc1F [CBK286020] | 98.1078 |
| O=C(c1c[nH]c2ccccc12)N1CCC(Cc2ccccc2)CC1 [CBK200180] | 105.222 |
| CN1CCN(c2ccc(-c3cc(Nc4cccc(OCc5ccccc5)c4)ncn3)cn2)CC1 [CBK090918] | 144.544 |
| Cc1c(C(=O)N2CCC(c3nc(C)n4ccsc34)CC2)cnn1C [CBK285201] | 81.7631 |
| CSc1nc2ccc(NC(=O)CSc3nnnn3-c3ccccc3)cc2s1 [CBK263549] | 100 |
| CC1(C(=O)Nc2cnn(Cc3ccc(F)cc3)c2)CCCO1 (stereo not drawn) [CBK282585] | 94.9322 |

Some of the entries so far, bar-delimited:
SMILES | % of control remaining [%]
O=C(O)CCCC(=O)Nc1cccc([N+](=O)[O-])c1 [CBK261530] | 109.805
CC(=O)NC(c1nccs1)C1CCCN(CC2CCCCC2)C1 (stereo not drawn) [CBK285152] | 138.27
Cc1noc(C)c1S(=O)(=O)NCCc1c[nH]c2ccccc12 [CBK067311] | 112.056
Cc1ccc2ncc(C(=O)Nc3ccc(F)cc3F)c(=O)n2c1 [CBK287286] | 101.471
COc1ccc([C@@]23CC[C@@H](NC(=O)c4ccc(Br)c(C)c4)C[C@@H]2N(C)CC3)cc1OC [CBK076656T] | 117.896

— article PMC12040169 (PLOS Biology, 2025)
